Among the data in PMC7862700 are binding signal values, retold here.

Chains of the proteins cited; added tags and fusions are not shown. Lines headed by an entry give the natural chain unless they say otherwise; changes in a name come on top.
UniProt Q9Y603: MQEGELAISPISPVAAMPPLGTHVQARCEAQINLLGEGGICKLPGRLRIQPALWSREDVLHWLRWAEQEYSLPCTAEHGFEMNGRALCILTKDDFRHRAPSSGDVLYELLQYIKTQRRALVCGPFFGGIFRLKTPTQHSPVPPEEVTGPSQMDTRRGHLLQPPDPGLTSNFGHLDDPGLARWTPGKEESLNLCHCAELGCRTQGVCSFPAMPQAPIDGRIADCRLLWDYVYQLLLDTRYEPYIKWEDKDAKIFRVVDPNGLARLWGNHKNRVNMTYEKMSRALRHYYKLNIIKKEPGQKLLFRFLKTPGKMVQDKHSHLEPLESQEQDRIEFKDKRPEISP

The entries are a selection whose mix differs from that of the whole data set. At the low end of the ranking the order means little.

The target of the assay is ETV7 (UniProt Q9Y603). Briefly: DAPPL (digital affinity profiling via proximity ligation, sequencing). The conditions noted are these: 10 mM Tris-HCl pH 7.5, 50 mM NaCl, 1 mM DTT, 4% glycerol, room temperature, 30 min; GST-TFs on glutathione beads, 16-mer random dsDNA library, 0.1% …; high values mean tight binding; double strand, one strand shown; scale: fold enrichment (6-mer frequency, TF over GST control).
In the case of ATGCCT, the binding signal was 1.26. The figure for AACTGA is 1.05; for CATAGC it is 0.97. Under ACCCTT stands 1.1; under CACCTC, 1.17; under TTATTA, 1.11. Consider TTGCTC, for which the binding signal was determined as 1.59. The figure for CAACTG is 1.06; for ATCTAT it is 1.18. The figure for ACCGCA is 1.12. CCCTAT had a binding signal of 1.3. As to CTAGCG, the binding signal worked out at 0.991. Under CACCGG stands 0.936. Take TACCGG: the binding signal worked out at 1.36. The figure for GTTTGA is 1.24; for AAACTT it is 1.22; for ATACGG it is 1. In the case of GAATGT, the binding signal is 1.13. The figure for TTTGTG is 1.2; for CTACGT it is 1.35; for GTTTAT it is 1.19.

Sequence TCAAGT yielded a binding signal of 1.03. Under AAGATC stands 1.08; under TGCCGG, 0.909. The figure for GTATCA is 1.04; for ACGGCA it is 0.995; for TAAAGG it is 1.09. The figure for ACGGCT is 1.03; for ATTAGG it is 1.15. AAAGTT yielded a binding signal of 1.15.

Take TGCCCC: the binding signal stood at 1.18. Under ATTTCG stands 1.26. The figure for TCAATG is 0.98. Under CATACG stands 0.993; under ACAATT, 1.21. GCCCAC: the binding signal is 0.979. On to AATAGT, for which the binding signal worked out at 1.18.

Turning to AGCAAT, the binding signal was 1.25. Under GTGACC stands 1.3. Take TTAGGA: the binding signal was 0.898.
